In PMC7655986:
These are yes or no findings as the source states them, for the method shown. For some of these results: Binding seen in cells or lysates may run through a third protein. Some entries that bind do so weakly or less than the wild type. For some of these results: Sequences can lack the tags named with a protein. Blank lines part the entries; values can stand above or below the molecule they belong to.

Legend:
[1] = molecular target: T1, desmoglein 3 (Dsg3), endogenous in human keratinocytes (HaCaT) (human (endogenous in HaCaT)) (UniProt P32926); assay: co-IP; HaCaT lysates in RIPA buffer (50 mM Tris-HCl pH 8, 150 mM NaCl, 0.1% SDS, 1% NP-40, 1 mM EDTA); 1.5 µg polyclonal anti-Dsg3 or anti-Dsg2 antibody or rabbit ctr-IgG, 3 h at 4°C, A/G beads overnight; Western blot
T1 sequence: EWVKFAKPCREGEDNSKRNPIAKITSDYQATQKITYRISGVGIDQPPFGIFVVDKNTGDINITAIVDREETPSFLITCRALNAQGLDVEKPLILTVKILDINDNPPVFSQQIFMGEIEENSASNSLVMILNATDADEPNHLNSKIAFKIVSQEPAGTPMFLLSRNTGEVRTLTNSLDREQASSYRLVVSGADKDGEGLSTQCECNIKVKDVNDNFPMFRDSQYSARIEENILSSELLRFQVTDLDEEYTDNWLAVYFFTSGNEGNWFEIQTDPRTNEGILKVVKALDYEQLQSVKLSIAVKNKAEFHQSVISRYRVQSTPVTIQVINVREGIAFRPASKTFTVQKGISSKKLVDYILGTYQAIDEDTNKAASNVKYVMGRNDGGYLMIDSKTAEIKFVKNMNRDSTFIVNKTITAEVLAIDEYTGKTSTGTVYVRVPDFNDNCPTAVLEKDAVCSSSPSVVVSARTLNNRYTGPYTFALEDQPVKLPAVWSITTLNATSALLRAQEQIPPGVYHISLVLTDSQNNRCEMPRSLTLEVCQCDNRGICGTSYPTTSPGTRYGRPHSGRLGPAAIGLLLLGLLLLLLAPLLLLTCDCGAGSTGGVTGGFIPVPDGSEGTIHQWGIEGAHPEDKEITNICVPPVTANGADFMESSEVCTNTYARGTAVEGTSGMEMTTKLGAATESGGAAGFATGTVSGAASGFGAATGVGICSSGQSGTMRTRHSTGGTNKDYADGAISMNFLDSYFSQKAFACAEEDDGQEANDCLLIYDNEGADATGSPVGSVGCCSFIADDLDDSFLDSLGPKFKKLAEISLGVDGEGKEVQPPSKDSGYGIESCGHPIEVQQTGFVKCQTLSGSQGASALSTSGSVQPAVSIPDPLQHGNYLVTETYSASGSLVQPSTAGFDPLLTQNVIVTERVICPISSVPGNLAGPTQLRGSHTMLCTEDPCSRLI

[2] = molecular target: T1, desmoglein 3 (Dsg3), endogenous in human keratinocytes (HaCaT) (human (endogenous in HaCaT)); assay: cross-linking + co-IP; HaCaT cells treated with the membrane-impermeable crosslinker DTSSP before lysis and immunoprecipitation
[3] = molecular target: T2, recombinant Fc-construct of the Dsg3 extracellular domain (UniProt P32926); assay: atomic force microscopy (cell-free, inhibition by antibodies); Dsg-Fc constructs on tip and mica; binding frequencies with and without (ctr) incubation for 1 h of AK23, PV3-IgG or a monoclonal inhibitory anti-Dsg2 antibody; both purified
T2 sequence: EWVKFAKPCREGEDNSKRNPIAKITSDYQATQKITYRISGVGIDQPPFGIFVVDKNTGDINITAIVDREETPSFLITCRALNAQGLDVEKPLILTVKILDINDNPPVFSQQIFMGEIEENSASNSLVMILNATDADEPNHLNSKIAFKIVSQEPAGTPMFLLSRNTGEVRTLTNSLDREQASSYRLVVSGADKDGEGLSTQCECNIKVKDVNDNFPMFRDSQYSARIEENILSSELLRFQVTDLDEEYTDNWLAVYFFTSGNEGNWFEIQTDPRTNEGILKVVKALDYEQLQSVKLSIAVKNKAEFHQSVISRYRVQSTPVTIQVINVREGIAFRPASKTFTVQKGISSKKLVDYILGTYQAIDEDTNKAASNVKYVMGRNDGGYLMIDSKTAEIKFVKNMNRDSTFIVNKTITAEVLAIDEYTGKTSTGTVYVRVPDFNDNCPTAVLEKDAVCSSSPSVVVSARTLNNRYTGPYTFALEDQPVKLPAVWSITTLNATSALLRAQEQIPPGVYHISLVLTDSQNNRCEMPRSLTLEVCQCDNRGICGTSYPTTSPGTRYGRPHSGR

[4] = molecular target: T3, recombinant Fc-construct of the Dsg2 extracellular domain, Q14126; assay: as above; details: remark: other sources report otherwise
T3 chain: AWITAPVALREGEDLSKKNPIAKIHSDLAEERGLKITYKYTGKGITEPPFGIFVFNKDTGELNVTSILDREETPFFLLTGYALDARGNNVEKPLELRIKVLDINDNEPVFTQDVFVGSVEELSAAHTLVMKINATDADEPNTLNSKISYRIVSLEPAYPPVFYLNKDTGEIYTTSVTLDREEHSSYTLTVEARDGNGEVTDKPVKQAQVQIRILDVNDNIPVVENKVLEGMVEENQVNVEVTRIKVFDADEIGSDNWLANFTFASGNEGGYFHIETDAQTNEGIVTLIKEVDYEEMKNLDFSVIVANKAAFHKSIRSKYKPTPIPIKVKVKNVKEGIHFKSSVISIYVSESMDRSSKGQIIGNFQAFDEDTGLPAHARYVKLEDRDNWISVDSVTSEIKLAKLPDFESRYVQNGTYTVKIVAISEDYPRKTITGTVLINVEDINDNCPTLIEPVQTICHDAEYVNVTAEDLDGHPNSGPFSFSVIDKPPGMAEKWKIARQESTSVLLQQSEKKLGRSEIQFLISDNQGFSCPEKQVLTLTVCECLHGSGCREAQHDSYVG

[5] = molecular target: desmoglein 2 (Dsg2), endogenous in human keratinocytes (HaCaT) (human (endogenous in HaCaT)) (UniProt Q14126); assay: co-IP; HaCaT lysates in RIPA buffer (50 mM Tris-HCl pH 8, 150 mM NaCl, 0.1% SDS, 1% NP-40, 1 mM EDTA); 1.5 µg polyclonal anti-Dsg3 or anti-Dsg2 antibody or rabbit ctr-IgG, 3 h at 4°C, A/G beads overnight; Western blot
[6] = molecular target: T2, recombinant Fc-construct of the Dsg3 extracellular domain; assay: atomic force microscopy (cell-free single-molecule force measurements); Dsg-Fc constructs (0.15 mg/ml) linked by a PEG linker to the cantilever tip and to mica sheets; Force Mapping mode; binding frequency and unbinding force; pulling speeds from 1 to 20 µm/s and modified Bells equation for the bond lifetime; 5 mM EGTA for 1 h lowered the binding frequency; both purified

binding [1]: binds
binding [2]: binds
Molecule: desmoglein 2 (Dsg2), endogenous in human keratinocytes (HaCaT) (from UniProt Q14126 50-1118)

Molecule: recombinant Fc-construct of the Dsg2 extracellular domain (from UniProt Q14126 50-609) (Fc fusion)
binding [3]: binds

B1: recombinant Fc-construct of the Dsg2 extracellular domain, Q14126 50-609 (Fc fusion)
chain: AWITAPVALREGEDLSKKNPIAKIHSDLAEERGLKITYKYTGKGITEPPFGIFVFNKDTGELNVTSILDREETPFFLLTGYALDARGNNVEKPLELRIKVLDINDNEPVFTQDVFVGSVEELSAAHTLVMKINATDADEPNTLNSKISYRIVSLEPAYPPVFYLNKDTGEIYTTSVTLDREEHSSYTLTVEARDGNGEVTDKPVKQAQVQIRILDVNDNIPVVENKVLEGMVEENQVNVEVTRIKVFDADEIGSDNWLANFTFASGNEGGYFHIETDAQTNEGIVTLIKEVDYEEMKNLDFSVIVANKAAFHKSIRSKYKPTPIPIKVKVKNVKEGIHFKSSVISIYVSESMDRSSKGQIIGNFQAFDEDTGLPAHARYVKLEDRDNWISVDSVTSEIKLAKLPDFESRYVQNGTYTVKIVAISEDYPRKTITGTVLINVEDINDNCPTLIEPVQTICHDAEYVNVTAEDLDGHPNSGPFSFSVIDKPPGMAEKWKIARQESTSVLLQQSEKKLGRSEIQFLISDNQGFSCPEKQVLTLTVCECLHGSGCREAQHDSYVG
binding [4]: binds

binding [5]: binds
B2: desmoglein 3 (Dsg3), endogenous in human keratinocytes (HaCaT) (protein, UniProt P32926 50-999)
chain: EWVKFAKPCREGEDNSKRNPIAKITSDYQATQKITYRISGVGIDQPPFGIFVVDKNTGDINITAIVDREETPSFLITCRALNAQGLDVEKPLILTVKILDINDNPPVFSQQIFMGEIEENSASNSLVMILNATDADEPNHLNSKIAFKIVSQEPAGTPMFLLSRNTGEVRTLTNSLDREQASSYRLVVSGADKDGEGLSTQCECNIKVKDVNDNFPMFRDSQYSARIEENILSSELLRFQVTDLDEEYTDNWLAVYFFTSGNEGNWFEIQTDPRTNEGILKVVKALDYEQLQSVKLSIAVKNKAEFHQSVISRYRVQSTPVTIQVINVREGIAFRPASKTFTVQKGISSKKLVDYILGTYQAIDEDTNKAASNVKYVMGRNDGGYLMIDSKTAEIKFVKNMNRDSTFIVNKTITAEVLAIDEYTGKTSTGTVYVRVPDFNDNCPTAVLEKDAVCSSSPSVVVSARTLNNRYTGPYTFALEDQPVKLPAVWSITTLNATSALLRAQEQIPPGVYHISLVLTDSQNNRCEMPRSLTLEVCQCDNRGICGTSYPTTSPGTRYGRPHSGRLGPAAIGLLLLGLLLLLLAPLLLLTCDCGAGSTGGVTGGFIPVPDGSEGTIHQWGIEGAHPEDKEITNICVPPVTANGADFMESSEVCTNTYARGTAVEGTSGMEMTTKLGAATESGGAAGFATGTVSGAASGFGAATGVGICSSGQSGTMRTRHSTGGTNKDYADGAISMNFLDSYFSQKAFACAEEDDGQEANDCLLIYDNEGADATGSPVGSVGCCSFIADDLDDSFLDSLGPKFKKLAEISLGVDGEGKEVQPPSKDSGYGIESCGHPIEVQQTGFVKCQTLSGSQGASALSTSGSVQPAVSIPDPLQHGNYLVTETYSASGSLVQPSTAGFDPLLTQNVIVTERVICPISSVPGNLAGPTQLRGSHTMLCTEDPCSRLI

B3: recombinant Fc-construct of the Dsg3 extracellular domain (Fc fusion, UniProt P32926 50-615)
chain: EWVKFAKPCREGEDNSKRNPIAKITSDYQATQKITYRISGVGIDQPPFGIFVVDKNTGDINITAIVDREETPSFLITCRALNAQGLDVEKPLILTVKILDINDNPPVFSQQIFMGEIEENSASNSLVMILNATDADEPNHLNSKIAFKIVSQEPAGTPMFLLSRNTGEVRTLTNSLDREQASSYRLVVSGADKDGEGLSTQCECNIKVKDVNDNFPMFRDSQYSARIEENILSSELLRFQVTDLDEEYTDNWLAVYFFTSGNEGNWFEIQTDPRTNEGILKVVKALDYEQLQSVKLSIAVKNKAEFHQSVISRYRVQSTPVTIQVINVREGIAFRPASKTFTVQKGISSKKLVDYILGTYQAIDEDTNKAASNVKYVMGRNDGGYLMIDSKTAEIKFVKNMNRDSTFIVNKTITAEVLAIDEYTGKTSTGTVYVRVPDFNDNCPTAVLEKDAVCSSSPSVVVSARTLNNRYTGPYTFALEDQPVKLPAVWSITTLNATSALLRAQEQIPPGVYHISLVLTDSQNNRCEMPRSLTLEVCQCDNRGICGTSYPTTSPGTRYGRPHSGR
binding [6]: binds
binding [3]: binds
